Measurements reported in PubChem BioAssay AID1259405 (NCATS, 2018).
Aim: 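Knock-downs that lift recombinant protein yield in hamster ovary cells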 (primary screen). System: Chinese hamster CHO-K1 ovary cells with stable secreted eGFP expression. Knock-down reagent: single siRNA against mouse genes, 0.8 pmol siRNA per well (2 µl of 400 nM stock). Duration: 3 days. Read-out: 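Per-well intracellular GFP measured by laser scanning cytometry, plus viability from ATP luminescence, each relative to plate median of non-targeting control wells, in %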. Reading the numbers: GFP, % of control: higher = more GFP per well, higher productivity; viability (ATP), % of control: higher = more viable cells (more ATP). Active means: 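a knock-down is called active if GFP reaches 120% or more of non-targeting control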.
This is a random part of about 50,000 reagents tested. Of all reagents, about 4,000 (8%) were called active. 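Mouse siRNA library applied to hamster cells; one well for each siRNA.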 The numbers tell different reagents against one gene apart. Reagent sequences are not shown.

| gene | siRNA no. | GFP, % of control | viability (ATP), % of control | Call |
| --- | --- | --- | --- | --- |
| Bok (BCL2-related ovarian killer) | 1 | 62.2 | 75.6 | inactive |
| Bok (BCL2-related ovarian killer) | 2 | 105 | 92.5 | inactive |
| Itgax (integrin alpha X) | 1 | 63.5 | 72.9 | inactive |
| Itgax (integrin alpha X) | 2 | 107 | 94.6 | inactive |
| Gtf2i (general transcription factor II I) | 1 | 73.3 | 85.7 | inactive |
| Gtf2i (general transcription factor II I) | 2 | 36.5 | 38.4 | inactive |
| Gtf2i (general transcription factor II I) | 3 | 92.9 | 102 | inactive |
| Mc3r (melanocortin 3 receptor) | 1 | 59.7 | 60 | inactive |
| Mc3r (melanocortin 3 receptor) | 2 | 46.6 | 76.3 | inactive |
| Mc3r (melanocortin 3 receptor) | 3 | 74.4 | 75.1 | inactive |
| Bcl2l1 (BCL2-like 1) | 1 | 41.2 | 50.6 | inactive |
| Bcl2l1 (BCL2-like 1) | 2 | 51.1 | 67.8 | inactive |
| Bcl2l1 (BCL2-like 1) | 3 | 64.6 | 40.5 | inactive |
| Cstdc2 (cystatin domain containing 2) | 1 | 87.8 | 68.4 | inactive |
| Cstdc2 (cystatin domain containing 2) | 2 | 74.3 | 54.4 | inactive |
| Cstdc2 (cystatin domain containing 2) | 3 | 25.4 | 40.2 | inactive |
| Lgi2 (leucine-rich repeat LGI family, member 2) | 1 | 59.2 | 47.9 | inactive |
| Lgi2 (leucine-rich repeat LGI family, member 2) | 2 | 89.1 | 81.8 | inactive |
| Lgi2 (leucine-rich repeat LGI family, member 2) | 3 | 67.5 | 77 | inactive |
| Or52s1b (olfactory receptor family 52 subfamily S member 1B) | 1 | 132 | 94 | active |
| Or52s1b (olfactory receptor family 52 subfamily S member 1B) | 2 | 62.1 | 53.9 | inactive |
| Or52s1b (olfactory receptor family 52 subfamily S member 1B) | 3 | 59.1 | 77.8 | inactive |
| Elmo1 (engulfment and cell motility 1) | 1 | 63.2 | 53.4 | inactive |
| Elmo1 (engulfment and cell motility 1) | 2 | 64.1 | 66.4 | inactive |
| Elmo1 (engulfment and cell motility 1) | 3 | 53.5 | 78.1 | inactive |
| Gtf2h2 (general transcription factor II H, polypeptide 2) | 1 | 72.8 | 75.7 | inactive |
| Gtf2h2 (general transcription factor II H, polypeptide 2) | 2 | 113 | 97.3 | inactive |
| Or6c69b (olfactory receptor family 6 subfamily C member 69B) | 1 | 69.1 | 38.7 | inactive |
| Or6c69b (olfactory receptor family 6 subfamily C member 69B) | 2 | 31.4 | 23.5 | inactive |
| Or6c69b (olfactory receptor family 6 subfamily C member 69B) | 3 | 83.7 | 99.5 | inactive |
| Sult5a1 (sulfotransferase family 5A, member 1) | 1 | 103 | 93.1 | inactive |
| Sult5a1 (sulfotransferase family 5A, member 1) | 2 | 90.1 | 93.3 | inactive |
| Sult5a1 (sulfotransferase family 5A, member 1) | 3 | 91.4 | 74.4 | inactive |
| Ces2a (carboxylesterase 2A) | 1 | 95.2 | 109 | inactive |
| Ces2a (carboxylesterase 2A) | 2 | 66.5 | 81.1 | inactive |
| Ces2a (carboxylesterase 2A) | 3 | 57.8 | 68.9 | inactive |
| Col6a6 (collagen, type VI, alpha 6) | 1 | 62.3 | 83.3 | inactive |
| Col6a6 (collagen, type VI, alpha 6) | 2 | 90.6 | 67.7 | inactive |
| Col6a6 (collagen, type VI, alpha 6) | 3 | 81.5 | 58.2 | inactive |
| Antkmt (adenine nucleotide translocase lysine methyltransferase) | 1 | 72.9 | 63.7 | inactive |
| Antkmt (adenine nucleotide translocase lysine methyltransferase) | 2 | 58.9 | 60.8 | inactive |
| Antkmt (adenine nucleotide translocase lysine methyltransferase) | 3 | 104 | 98.6 | inactive |
| Gsta2 (glutathione S-transferase, alpha 2 (Yc2)) | 1 | 61.6 | 88.9 | inactive |
| Gsta2 (glutathione S-transferase, alpha 2 (Yc2)) | 2 | 65.4 | 90 | inactive |
| Gsta2 (glutathione S-transferase, alpha 2 (Yc2)) | 3 | 51.9 | 61.7 | inactive |
| Lipt2 (lipoyl(octanoyl) transferase 2 (putative)) | 1 | 83.7 | 79.6 | inactive |
| Lipt2 (lipoyl(octanoyl) transferase 2 (putative)) | 2 | 68.3 | 80 | inactive |
| Lipt2 (lipoyl(octanoyl) transferase 2 (putative)) | 3 | 69.6 | 77.9 | inactive |
| Mrpl54 (mitochondrial ribosomal protein L54) | 1 | 108 | 76.7 | inactive |
| Mrpl54 (mitochondrial ribosomal protein L54) | 2 | 150 | 61.4 | active |
| Mrpl54 (mitochondrial ribosomal protein L54) | 3 | 69.6 | 74.4 | inactive |
| Pms2 (PMS1 homolog2, mismatch repair system component) | 1 | 62.9 | 101 | inactive |
| Pms2 (PMS1 homolog2, mismatch repair system component) | 2 | 60.7 | 73.2 | inactive |
| Rev1 (REV1, DNA directed polymerase) | 1 | 64.9 | 80.2 | inactive |
| Rev1 (REV1, DNA directed polymerase) | 2 | 71 | 59.5 | inactive |
| Rev1 (REV1, DNA directed polymerase) | 3 | 64.6 | 56 | inactive |
| Large1 (LARGE xylosyl- and glucuronyltransferase 1) | 1 | 61 | 62.9 | inactive |
| Large1 (LARGE xylosyl- and glucuronyltransferase 1) | 2 | 107 | 126 | inactive |
| Large1 (LARGE xylosyl- and glucuronyltransferase 1) | 3 | 99.2 | 123 | inactive |
| Ccl26 (C-C motif chemokine ligand 26) | 1 | 51.8 | 56.1 | inactive |
| Ccl26 (C-C motif chemokine ligand 26) | 2 | 38.6 | 31 | inactive |
| Ccl26 (C-C motif chemokine ligand 26) | 3 | 100 | 72.6 | inactive |
| Qsox2 (quiescin Q6 sulfhydryl oxidase 2) | 1 | 84 | 72.9 | inactive |
| Qsox2 (quiescin Q6 sulfhydryl oxidase 2) | 2 | 93.2 | 76.3 | inactive |
| Qsox2 (quiescin Q6 sulfhydryl oxidase 2) | 3 | 98.2 | 68.2 | inactive |
| Mif4gd (MIF4G domain containing) | 1 | 82.7 | 88.8 | inactive |
| Mif4gd (MIF4G domain containing) | 2 | 197 | 67.7 | active |
| Mif4gd (MIF4G domain containing) | 3 | 115 | 74.9 | inactive |
| Smpd3 (sphingomyelin phosphodiesterase 3, neutral) | 1 | 59.7 | 54.4 | inactive |
| Smpd3 (sphingomyelin phosphodiesterase 3, neutral) | 2 | 82 | 79.6 | inactive |
| Nnt (nicotinamide nucleotide transhydrogenase) | 1 | 106 | 107 | inactive |
| Nnt (nicotinamide nucleotide transhydrogenase) | 2 | 78.5 | 77.3 | inactive |
| Nnt (nicotinamide nucleotide transhydrogenase) | 3 | 61.5 | 89.8 | inactive |
| Uqcr11 (ubiquinol-cytochrome c reductase, complex III subunit XI) | 1 | 67.9 | 81.3 | inactive |
| Uqcr11 (ubiquinol-cytochrome c reductase, complex III subunit XI) | 2 | 50.7 | 59.4 | inactive |
| Uqcr11 (ubiquinol-cytochrome c reductase, complex III subunit XI) | 3 | 55.3 | 36.3 | inactive |
| Serp1 (stress-associated endoplasmic reticulum protein 1) | 1 | 33.2 | 57.8 | inactive |
| Serp1 (stress-associated endoplasmic reticulum protein 1) | 2 | 65.7 | 30.2 | inactive |
| Serp1 (stress-associated endoplasmic reticulum protein 1) | 3 | 52.5 | 70.7 | inactive |
| Adam34l (a disintegrin and metallopeptidase domain 34 like) | 1 | 81.6 | 49.5 | inactive |
| Adam34l (a disintegrin and metallopeptidase domain 34 like) | 2 | 45 | 47.8 | inactive |
| Adam34l (a disintegrin and metallopeptidase domain 34 like) | 3 | 77.5 | 51.6 | inactive |
| Kif24 (kinesin family member 24) | 1 | 38.6 | 51.3 | inactive |
| Kif24 (kinesin family member 24) | 2 | 68.7 | 72.3 | inactive |
| Kif24 (kinesin family member 24) | 3 | 74.6 | 61 | inactive |
| Gngt1 | 1 | 78.9 | 74.6 | inactive |
| Gngt1 | 2 | 142 | 77 | active |
| Gngt1 | 3 | 81.2 | 47.5 | inactive |
| Or4k37 (olfactory receptor family 4 subfamily K member 37) | 1 | 67 | 63.8 | inactive |
| Or4k37 (olfactory receptor family 4 subfamily K member 37) | 2 | 79.2 | 53.6 | inactive |
| Or4k37 (olfactory receptor family 4 subfamily K member 37) | 3 | 99.6 | 83.3 | inactive |
| Kif3b (kinesin family member 3B) | 1 | 66.2 | 70.1 | inactive |
| Kif3b (kinesin family member 3B) | 2 | 76.4 | 93.3 | inactive |
| Zfp36l3 (zinc finger protein 36, C3H type-like 3) | 1 | 60 | 84.7 | inactive |
| Zfp36l3 (zinc finger protein 36, C3H type-like 3) | 2 | 126 | 72.3 | active |
| Zfp36l3 (zinc finger protein 36, C3H type-like 3) | 3 | 54.5 | 72.5 | inactive |
| Upk3a (uroplakin 3A) | 1 | 90.9 | 50.2 | inactive |
| Upk3a (uroplakin 3A) | 2 | 31.9 | 62.6 | inactive |
| Upk3a (uroplakin 3A) | 3 | 82.3 | 88.7 | inactive |
| Cab39 (calcium binding protein 39) | 1 | 94.8 | 104 | inactive |
| Cab39 (calcium binding protein 39) | 2 | 81.6 | 70.8 | inactive |
| Sesn1 (sestrin 1) | 1 | 75.7 | 65.9 | inactive |
| Sesn1 (sestrin 1) | 2 | 67.3 | 89.5 | inactive |
| Sesn1 (sestrin 1) | 3 | 52 | 65.1 | inactive |
| Gorasp1 (golgi reassembly stacking protein 1) | 1 | 117 | 90.6 | inactive |
| Gorasp1 (golgi reassembly stacking protein 1) | 2 | 22.6 | 28.2 | inactive |
| Gorasp1 (golgi reassembly stacking protein 1) | 3 | 114 | 84.8 | inactive |

Taken from above:
Entry of Mc3r (melanocortin 3 receptor) #2 under “GFP, % of control”: 46.6
Under “GFP, % of control”, Sult5a1 (sulfotransferase family 5A, member 1) #3 reads 91.4
Col6a6 (collagen, type VI, alpha 6) #2, GFP, % of control: 90.6
For “Call”, Nnt (nicotinamide nucleotide transhydrogenase) #1 shows inactive
For “GFP, % of control”, Gsta2 (glutathione S-transferase, alpha 2 (Yc2)) #1 reads 61.6
Kif3b (kinesin family member 3B) #2, viability (ATP), % of control → 93.3
